Protein sequences, listed by entry. Tags and fused reporters are not part of them. Lines headed by an entry give the natural chain unless they say otherwise; changes in a name come on top.
UniProt P18054: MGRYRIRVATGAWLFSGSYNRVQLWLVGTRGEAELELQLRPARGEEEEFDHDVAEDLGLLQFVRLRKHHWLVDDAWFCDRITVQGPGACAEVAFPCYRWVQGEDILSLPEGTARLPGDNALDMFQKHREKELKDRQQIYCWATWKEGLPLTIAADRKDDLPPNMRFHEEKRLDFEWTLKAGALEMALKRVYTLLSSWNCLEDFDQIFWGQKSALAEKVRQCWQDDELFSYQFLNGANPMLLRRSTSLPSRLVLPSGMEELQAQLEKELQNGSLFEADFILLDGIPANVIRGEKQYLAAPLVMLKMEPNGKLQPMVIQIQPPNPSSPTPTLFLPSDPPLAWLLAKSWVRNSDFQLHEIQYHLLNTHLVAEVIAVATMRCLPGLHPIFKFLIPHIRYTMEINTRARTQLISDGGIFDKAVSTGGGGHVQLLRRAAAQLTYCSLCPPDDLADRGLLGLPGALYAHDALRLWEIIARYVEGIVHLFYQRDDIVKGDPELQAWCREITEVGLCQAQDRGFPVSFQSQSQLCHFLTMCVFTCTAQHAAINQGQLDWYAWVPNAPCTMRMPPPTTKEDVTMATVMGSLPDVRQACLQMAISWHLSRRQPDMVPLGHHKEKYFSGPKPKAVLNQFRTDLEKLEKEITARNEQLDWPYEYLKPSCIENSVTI

Hit rate of the full screen: of about 580,000 compounds, about 6,100 (1.1%) were called active. Inconclusive means that the source gave no clear call. Such entries were picked first, then a sample of the others. Calls come from the whole dose curve; as a rule, active = well fitted inhibition curve with a large enough effect; inconclusive = small, poorly fitted or top-dose-only effect, or another doubt; inactive = no such curve, though single readings can be large or run the other way. Potencies of inconclusive entries are doubtful fits and often do not repeat.
The compounds below were run against Polyunsaturated fatty acid lipoxygenase ALOX12 (Homo sapiens) (UniProt P18054) (assay: Primary qHTS assay for inhibitors of human arachidonate 12S-lipoxygenase (ALOX12): Round 2). Settings: purified 12hLO, xylenol orange hydroperoxide absorbance; activity change, negative = inhibition: at 108 µM (top of the series) unless noted.
Outline: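 Purified human 12hLO (150 nM final) in 25 mM Hepes, 0.01% Triton X-100, pH 7.0 was preincubated 15 min at room temperature with compound. Then 40 uM arachidonic acid was added, 30 min. Hydroperoxide was read by Fe-XO absorbance ratio 573/405 nm.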
With `Cc1ccc(-c2nccc(N3CCC(O)C3)n2)c(C)c1` (stereo not drawn) the Potency was active: 35.5 µM.
`CCCCc1ccc(S(=O)(=O)NC(=O)C2(C)CCN2C(=O)CC2CC2)cc1` (stereo not drawn) was tested, and the “activity change, negative = inhibition” value was inactive: 0.416%.
`O=C(NCNC(=O)c1ccccc1)c1ccccc1` was tested, and the “activity change, negative = inhibition” value was inactive: 13.2%.
With `Cc1ccccc1NC(=O)c1cccc(NC(=O)c2ccccc2C(=O)O)c1` the Potency was inconclusive: 100 µM [inhibitor, single point].
For `O=C(O)CCC(=O)c1cccc(Br)c1`, the Potency was inconclusive: 44.7 µM [inhibitor, partial curve, poor fit].
For `Cc1ccc(C)c(NS(=O)(=O)c2ccc(N3CC(C(=O)O)CC3=O)cc2)c1` (stereo not drawn), the Potency was inconclusive: 44.7 µM [inhibitor, partial curve, poor fit].
For `O=C(Nc1ccccc1)c1cc(C2CCCCN2C(=O)CCc2ccccc2)on1` (stereo not drawn), the “activity change, negative = inhibition” value was inactive: 3.79%.
For `CN1CCN(NC(=O)Nc2ccc([N+](=O)[O-])cc2)CC1`, the “activity change, negative = inhibition” value was inactive: -0.83%.
With `Cc1ccc(NC(=O)CNC(=O)c2cccs2)cc1S(=O)(=O)Nc1ccc(Cl)cc1` the Potency was inconclusive: 126 µM [inhibitor, partial curve, poor fit].
In the case of `CS(=O)(=O)N(C1CCOCC1)C1CNC1`, the “activity change, negative = inhibition” value is reported as inactive: 46.3%.
In the case of `CCn1c(C2CCCNC2)nn(CCn2ccc(C)n2)c1=O` (stereo not drawn), the Potency is reported as inconclusive: 15.8 µM [inhibitor, full curve].
With `Cc1ccc(-n2c(N)c(C(=O)N3CCOCC3)sc2=S)c(C)c1` the Potency was inconclusive: 112 µM [inhibitor, single point].
With `Cc1cccc(S(=O)(=O)C(C#N)c2nc3ccccc3nc2N2CCCC2)c1` (stereo not drawn) the Potency was inconclusive: 31.6 µM [inhibitor, partial curve, poor fit].
With `CN(c1ccc(O)cc1)c1nc(-c2cccs2)cs1` the Potency was inconclusive: 56.2 µM [inhibitor, single point].
For `COc1ccc(CCNC(=O)C2CCCN(C(=O)c3ccc(Cl)cc3)C2)cc1` (stereo not drawn), the “activity change, negative = inhibition” value was inactive: -14.8%.
`CC(C)(C)OC(=O)C1C(=O)CC(C)(O)C(C(=O)OC(C)(C)C)C1c1cccnc1` (stereo not drawn) was tested, and the “activity change, negative = inhibition” value was inactive: 0%.
In the case of `CCOC(=O)c1oc2cccc(OCC(O)CNC(C)C)c2c1C` (stereo not drawn), the “activity change, negative = inhibition” value is reported as inactive: 0%.
With `Nc1nc2ccc(Oc3ccccc3)cc2s1` the “activity change, negative = inhibition” value was inactive: 418%.
With `O=C(NCc1n[nH]c(=S)n1-c1ccc(Br)cc1)c1ccc(S(=O)(=O)N2CCCCC2)cc1` the Potency was inconclusive: 39.8 µM [inhibitor, partial curve, poor fit].
For `CCCCC(=O)Nc1ccc(OCC)c2ncccc12`, the Potency was inconclusive: 6.31 µM [inhibitor, full curve, poor fit].
In the case of `CC(C)(C)NC(=O)C[C@H]1C[C@H](C(=O)N2CCCCC2)[C@@]2(C)c3[nH]c4cc(-c5ccco5)ccc4c3CCN2C1=O`, the Potency is reported as inconclusive: 56.2 µM [inhibitor, partial curve, poor fit].
For `CCn1nccc1C(=O)NCCn1ccn2nc(-c3ccc(C)c(C)c3)cc2c1=O`, the Potency was inconclusive: 31.6 µM [inhibitor, full curve].
With `CCN(CC)CCOC(=O)c1ccc(NC(=O)Cn2ncc3c([nH]c4ccc(C)cc43)c2=O)cc1` the Potency was inconclusive: 79.4 µM [inhibitor, partial curve, poor fit].
`c1ccc(CN(Cc2ccccc2)c2c3c(nc4ncnn24)CCC3)cc1` was tested, and the Potency was inconclusive: 112 µM [inhibitor, single point].
With `CC(=O)c1ccc(O)cc1` the “activity change, negative = inhibition” value was inactive: -5.87%.
`COC(=O)c1ccc(OCC(O)CN2CCN(C(=O)c3ccco3)CC2)c(OC)c1` (stereo not drawn) was tested, and the Potency was inconclusive: 158 µM [inhibitor, partial curve, poor fit].
In the case of `CCC1S/C(=N/C(=O)NC2CCCCC2)NC1=O` (stereo not drawn), the “activity change, negative = inhibition” value is reported as inactive: 0%.
For `COCC(C)NC(=O)CCC1CCCO1` (stereo not drawn), the “activity change, negative = inhibition” value was inactive: 0.92%.
`CC(C)n1c(O)c(/C=C2\C=NN=C2c2ccccc2)sc1=S` was tested, and the “activity change, negative = inhibition” value was inactive: 0%.
With `O=C(NCCCNC(=O)c1ccccn1)c1ccc(Cl)cc1` the “activity change, negative = inhibition” value was inactive: -2.54%.
`COc1ccc(-c2nc3ccccc3nc2-c2ccc(OC)c(OC)c2)cc1OC` was tested, and the Potency was inconclusive: 35.5 µM [inhibitor, partial curve, poor fit].
For `COc1ccccc1-c1nc(N2CCN(C)CC2)c2ccccc2n1`, the Potency was active: 28.2 µM.
For `Cc1ccc(SCCN2CCC(C)CCC2=O)cc1` (stereo not drawn), the “activity change, negative = inhibition” value was inactive: 15%.
For `O=C(Nc1ccc(Nc2ccccc2)cc1)c1ccccc1`, the Potency was inconclusive: 100 µM [inhibitor, single point].
In the case of `CCCc1ccc(C(C)NC(=S)NC2CCCCC2)cc1` (stereo not drawn), the Potency is reported as active: 35.5 µM.
`CN(C)/C=C1/C=C(C=O)OC1=O` was tested, and the Potency was inconclusive: 100 µM [inhibitor, partial curve, poor fit].
`Cc1ccc([C@H]2N[C@]3(CCCN(Cc4ccco4)C3=O)[C@H]3C(=O)N(C)C(=O)[C@@H]23)cc1` was tested, and the Potency was inconclusive: 39.8 µM [inhibitor, partial curve, poor fit].
`Fc1cccc(NC(=S)NNc2c3ccccc3nc3ccccc23)c1` was tested, and the Potency was active: 39.8 µM.
For `O=C(C1CCCCC1)N1CCc2ccccc21`, the Potency was inconclusive: 141 µM [inhibitor, single point].
With `COc1nccnc1NS(=O)(=O)c1ccc(NC(=O)c2ccc(F)cc2)cc1` the Potency was inconclusive: 112 µM [inhibitor, partial curve, poor fit].
In the case of `CCCN1C(=O)COCc2cc(-c3ccc(N(C)C)cc3)ccc21`, the Potency is reported as inconclusive: 44.7 µM [inhibitor, partial curve, poor fit].
In the case of `CN(C)C[C@@H]1CN(S(C)(=O)=O)C[C@H]1NC(=O)c1ccccc1C(F)(F)F`, the Potency is reported as inconclusive: 7.08 µM [inhibitor, full curve].
`COCCCNC(=O)CSC1=Nc2ccccc2C2=NC(CCC(=O)NCc3ccccc3OC)C(=O)N12` (stereo not drawn) was tested, and the Potency was inconclusive: 126 µM [inhibitor, partial curve, poor fit].
For `CCOc1ccc(C/C(N)=N/n2cnnc2)cc1`, the “activity change, negative = inhibition” value was inactive: 2.64% [at 57.4 µM].
With `CCN1CCN(c2ccc(N=Cc3ccccc3O)cc2)CC1` the “activity change, negative = inhibition” value was inactive: -22.2%.
In the case of `O=C(C1CCOCC1)N1CCC2(CC1)NCCc1c2[nH]c2ccccc12`, the “activity change, negative = inhibition” value is reported as inactive: 7.91%.
With `CCOc1ccccc1NS(=O)(=O)c1ccc(C(C)C)cc1` the Potency was inconclusive: 4.47 µM [inhibitor, full curve, poor fit].
With `Cc1ccc(CN2C[C@@H]3C(=O)N(Cc4ccc5c(c4)OCO5)C(=O)[C@@H]3C2)c(C)c1` the Potency was inconclusive: 11.2 µM [inhibitor, full curve, poor fit].

Source: PubChem BioAssay AID1671190 (National Center for Advancing Translational Sciences (NCATS), 2021)
% is set by controls: 0 for no effect and ±100 for the full control effect; potency is the fitted concentration of half-maximal effect.
